PubChem BioAssay AID686943 | Drosophila RNAi Screening Center – 2013
The screen tested about 23,000 reagents; this is a random part of those that have a named target and a result. 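Extra replicates exist only for a retested subset of genes; insulin dose and duration not given; both raised and lowered dpERK matter.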 Names joined by + are all predicted targets of the reagent. Further read-outs or replicates are left out here. Not stated in the record: the amount of reagent, the time to read-out.

- Purpose: 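Search across the genome for regulators of signalling from receptor tyrosine kinase to ERK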 (primary screen)
- Cells: Drosophila S2R+ haemocyte-like cells expressing YFP-tagged ERK (Rolled)
- Reagent: long dsRNA against Drosophila genes
- Conditions: insulin stimulation versus unstimulated cells; dose and duration not given
- Measured: 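Antibody staining for doubly phosphorylated ERK divided by ERK-YFP signal, as plate z-scores, in insulin-treated and untreated cells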
- Scale: replicate 1, z-score of dpERK with insulin and replicate 2, z-score of dpERK with insulin: higher = more active ERK per ERK-YFP after insulin; replicate 1, z-score of dpERK under basal conditions: higher = more basal active ERK per ERK-YFP

| gene knocked down | DRSC id | replicate 1, z-score of dpERK with insulin | replicate 2, z-score of dpERK with insulin | replicate 1, z-score of dpERK under basal conditions |
| --- | --- | --- | --- | --- |
| Tsp42Ed (Tetraspanin 42Ed) | DRSC05940 | -0.05 | 0.39 | 0.68 |
| mib2 (mind bomb 2) | DRSC02623 | -0.27 | 0.07 | 1.84 |
| CG8089 | DRSC07074 | -0.28 | 0.65 | 0.42 |
| ATPsynC (ATP synthase, subunit C) | DRSC15236 | -1.68 | -0.99 | 0.43 |
| Cad96Cb (Cadherin 96Cb) | DRSC14243 | -2.17 | 0 | -0.79 |
| Cad96Cb (Cadherin 96Cb) | DRSC14665 | -0.06 | 0.21 | 1.63 |
| CG11638 | DRSC18167 | 0.68 | 0.28 | 0.19 |
| CG11638 | DRSC18640 | 0.71 | -0.07 | -0.09 |
| CG31226 | DRSC21724 | 0.51 | 0.61 | -1.56 |
| RluA-1 (RluA pseudouridine synthase 1) | DRSC02240 | -0.47 | 0.84 | -0.18 |
| RluA-1 (RluA pseudouridine synthase 1) | DRSC03060 | 0.51 | 0.7 | -0.32 |
| CG31675 | DRSC01825 | 0.03 | -0.41 | -0.65 |
| ave (aveugle) | DRSC05502 | -4.71 | -3.47 | -0.32 |
| CNMa (CNMamide) | DRSC08405 | 1.28 | 0.56 | 0 |
| Sem1 (Suppressor of exocyst mutations 1) | DRSC02282 | -2.07 | -2.12 | 1.95 |
| CG8243 | DRSC07122 | 0.82 | -0.38 | 0.39 |
| CG8243 | DRSC22608 | 0.9 | 0.78 | 0.38 |
| CG15635 | DRSC00470 | 0.54 | 0.06 | -0.52 |
| CG15635 | DRSC22873 | 1.09 | 0.02 | -0.64 |
| CG4815 | DRSC15653 | -0.32 | 0.06 | 0.41 |
| Top1 (Topoisomerase 1) | DRSC20295 | -1.38 | -2.78 | -2.21 |
| lin (lines) | DRSC07644 | 0.88 | 0.6 | 0.66 |
| CG14312 | DRSC14791 | 0.13 | 0.05 | 0.64 |
| tkv + CR14033 + tRNA:Asp-GTC-2-1 + 1 more | DRSC00861 | -0.38 | 0.57 | 2.41 |
| Best2 (Bestrophin 2) | DRSC09712 | 0.15 | 0.33 | 0.17 |
| CG17821 | DRSC06696 | 0.01 | 0.04 | 1.32 |
| uno (univalents only) | DRSC07244 | 0.36 | 0.35 | -0.3 |
| CG32547 | DRSC19263 | -0.89 | 0.77 | -0.68 |
| CG32547 | DRSC19265 | 1.85 | 1.13 | -0.1 |
| CG32547 | DRSC19474 | 0.17 | -0.13 | -0.52 |
| CG32547 | DRSC19626 | -2.49 | -0.33 | 0.68 |
| RpL22-like (Ribosomal protein L22-like) | DRSC04582 | 1 | 0.35 | -0.23 |
| CG13046 | DRSC09927 | -0.09 | 0.45 | -0.2 |
| ND-15 (NADH dehydrogenase (ubiquinone) 15 kDa subunit) | DRSC00311 | -0.29 | -0.27 | -0.61 |
| Ttd14 (TRPL translocation defect 14) | DRSC06632 | -0.26 | 0.08 | -0.62 |
| Ttd14 (TRPL translocation defect 14) | DRSC06942 | 1.28 | 0.93 | -1.68 |
| CG42824 | DRSC13230 | 0.87 | 0.67 | 0.56 |
| nvy (nervy) | DRSC04705 | 0.61 | 0.81 | 0.68 |
| Xbp1 (X box binding protein-1) | DRSC04553 | 1.64 | 0.96 | 0.68 |
| Xbp1 (X box binding protein-1) | DRSC21624 | 0.08 | 0.95 | 0.54 |
| kipf (kipferl) | DRSC15446 | 0.57 | -0.6 | -0.02 |
| kipf (kipferl) | DRSC22871 | 1.01 | 0.16 | -0.14 |
| mRpL41 (mitochondrial ribosomal protein L41) | DRSC06257 | -0.49 | 0.11 | -1.22 |
| dib (disembodied) | DRSC08711 | 0.05 | -1.18 | 0.92 |
| wor (worniu) | DRSC03637 | 0.08 | -0.19 | 0.4 |
| CG18586 | DRSC10325 | 0.44 | 0.58 | -1 |
| CG32437 | DRSC11760 | 0.01 | -0.23 | -0.63 |
| CG32437 | DRSC22020 | 0.04 | 0.58 | 0.61 |
| Cad88C (Cadherin 88C) | DRSC15486 | 0.26 | 0.69 | 0.18 |
| Nak (Numb-associated kinase) | DRSC03379 | 0.33 | -0.21 | 0.42 |
| CG8526 | DRSC16438 | 1.12 | 0.78 | -0.73 |
| Obp57c + Obp57b | DRSC21914 | 0.05 | -0.32 | -0.55 |
| Socs36E (Suppressor of cytokine signaling at 36E) | DRSC02455 | -2.39 | -1.51 | 1.1 |
| Mccc2 (Methylcrotonoyl-CoA carboxylase 2) | DRSC04987 | 0.04 | -1.1 | -0.9 |
| CG30334 | DRSC05345 | 0.94 | 0.41 | 0.3 |
| CG31099 | DRSC14252 | -0.27 | -0.09 | -0.61 |
| Tbp (TATA binding protein) | DRSC04662 | 2.1 | 0.62 | -0.8 |
| CG2059 | DRSC18203 | 0.47 | 0.24 | 0.2 |
| GAPcenA (GTPase activating protein and centrosome-associated) | DRSC10771 | -0.03 | -0.15 | -0.03 |
| Gad1 (Glutamic acid decarboxylase 1) | DRSC08661 | -0.78 | 0.14 | 0.33 |
| CG31550 | DRSC12197 | -0.8 | -0.27 | 0.63 |
| CG31550 | DRSC12198 | -0.24 | 0.22 | 1.21 |
| Girdin | DRSC08292 | -0.23 | -0.17 | -0.09 |
| CG42505 + CG42504 + CG31358 | DRSC15235 | 1.7 | 0.14 | -0.18 |
| CG42505 + CG42504 + CG31358 | DRSC15308 | 2.15 | 0.7 | 0.82 |
| CG42505 + CG42504 + CG31358 | DRSC15309 | 0.2 | 0.42 | -0.5 |
| Pka-C2 (Protein kinase, cAMP-dependent, catalytic subunit 2) | DRSC16790 | 0.5 | -0.3 | -0.82 |
| CG42741 | DRSC04593 | -0.18 | -0.24 | 0.73 |
| CG42741 | DRSC22045 | -0.37 | -0.28 | 0.32 |
| HP1b (Heterochromatin Protein 1b) | DRSC18418 | -0.54 | -0.29 | 1.89 |
| Bdbt (Bride of doubletime) | DRSC15218 | -0.4 | -0.12 | 0.77 |
| CG14050 | DRSC18594 | 0.3 | 0.76 | 0.63 |
| Nckx30C | DRSC02686 | 0.18 | 0.07 | 0 |
| Nckx30C | DRSC02687 | -0.36 | 0.02 | -1.08 |
| Nckx30C | DRSC02688 | -1.45 | -0.29 | -0.15 |
| Nckx30C | DRSC02689 | -1.17 | -1.11 | -1.03 |

Part of the list above in another layout.
gene knocked down | DRSC id | replicate 1, z-score of dpERK with insulin | replicate 2, z-score of dpERK with insulin | replicate 1, z-score of dpERK under basal conditions
CG18586 | DRSC10325 | 0.44 | 0.58 | -1
CG32437 | DRSC11760 | 0.01 | -0.23 | -0.63
CG32437 | DRSC22020 | 0.04 | 0.58 | 0.61
Cad88C (Cadherin 88C) | DRSC15486 | 0.26 | 0.69 | 0.18
Nak (Numb-associated kinase) | DRSC03379 | 0.33 | -0.21 | 0.42
CG8526 | DRSC16438 | 1.12 | 0.78 | -0.73
Obp57c + Obp57b | DRSC21914 | 0.05 | -0.32 | -0.55
Socs36E (Suppressor of cytokine signaling at 36E) | DRSC02455 | -2.39 | -1.51 | 1.1
